Results taken from patent US20250115636A1, “PEPTIDOMIMETIC INHIBITORS OF PROTEIN N-TERMINAL […] 1, COMPOSITION, AND METHOD OF USE” (Purdue Research Foundation, priority 2022, published 2025).
At least one structure is not confirmed: it was looked up by name or label, or the drawing left a doubt.

Test system: SAHH
Assay: Selectivity assay, coupling enzyme SAHH
Format: biochemical
Conditions: at 100 μM

## NCCCC[C@H](NC(=O)[C@@H]1CCCN1C(=O)Cc1cccc2ccccc12)C(=O)NCCc1ccccc1 [Compound 1d]
  Inhibition of enzyme activity: ≤ 50%
